# Assay results from the supplement of paper PMC8728848.
# The other results are listed elsewhere or left out.
# B1: GS7807G-bfa-506-18-506 (Bacteroides fragilis) (protein)
# chain: ASCDKFDEINTDPDATTKVTSSLLATGLLLDITSSSASKSFIYDELLAKQMAWGESMEDYQYNVFGRSGFGGYTTLINAQKMVESVSDDNVNAYDGLAHFIKAYKIFYMSMEMGDLPYEEALQGELGLVRPKYNTQKEVMNFILSDLETAYELFSTAKDFDGDPILGGSISKWKKATTAFQLKVLMHLSKKESDADLKVKERFARIVASGSLMESNEDNLQMKYADKANTVYPFHNTNTKHAGYAMLSTMLIDKFKATGDIRMFYYAKPAKAKLNEGVTADSWDAYIGTDPSLPFEQIEKAYATEQYSGFNARYTDYPSGEPVVRLGYAEQNFILAEAAVRGWISGDASAYYKKAIRAHMEFIASNTPDEEVYHHGHPITEEAIAAFLETPAIQLSGEKEEDIEKILTQRYLASFMQHPYDVYYDYRRTGYPVLPINPATNRNTMNDRLPMRWMYPKSESDYNLEHQNEALERQFGGVDDVNKLMWILQ
# Key:
# Assay in all cases: glycan array binding signal (z-score within array); higher = stronger binding
# Conditions in all cases: glycan notation: IUPAC condensed, linker removed
# Gal3S(b1-4)Glc = target: Gal3S(b1-4)Glc
# Outline: (§1)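 Arrays were curated from the Consortium for Functional Glycomics database, 3228 in total, and kept only where the protein sequence was available. Binding is expressed as a within-array Z-score. This score was averaged across arrays of the same protein sequence at different concentrations or buffers and across linkers, and negative values can be read as non-binding.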
# Gal3S(b1-4)Glc6S = target: Gal3S(b1-4)Glc6S
# Outline: as §1
# Gal3S(b1-4)GlcNAc = target: Gal3S(b1-4)GlcNAc
# Outline: as §1
# [1] = target: Gal3S(b1-4)[Fuc(a1-3)]Glc6S
# Outline: as §1
# [2] = target: Gal3S(b1-4)[Fuc(a1-3)]GlcNAc
# Outline: as §1
# [3] = target: Gal3S(b1-4)[Fuc(a1-3)]GlcNAc6S
# Outline: as §1
# Gal3S4S(b1-4)GlcNAc = target: Gal3S4S(b1-4)GlcNAc
# Outline: as §1
# Gal3S6S(b1-4)GlcNAc = target: Gal3S6S(b1-4)GlcNAc
# Outline: as §1
# Gal3S6S(b1-4)GlcNAc6S = target: Gal3S6S(b1-4)GlcNAc6S
# Outline: as §1
# Gal4S(b1-4)GlcNAc = target: Gal4S(b1-4)GlcNAc
# Outline: as §1
# Gal4S6S(b1-4)GlcNAc = target: Gal4S6S(b1-4)GlcNAc
# Outline: as §1
# Gal6P(b1-4)GlcNAc = target: Gal6P(b1-4)GlcNAc
# Outline: as §1
# Gal6S(b1-3)GlcNAc = target: Gal6S(b1-3)GlcNAc
# Outline: as §1
# Gal6S(b1-3)GlcNAc6S = target: Gal6S(b1-3)GlcNAc6S
# Outline: as §1
# Gal6S(b1-4)Glc = target: Gal6S(b1-4)Glc
# Outline: as §1
# Gal6S(b1-4)Glc6S = target: Gal6S(b1-4)Glc6S
# Outline: as §1
# Gal6S(b1-4)GlcNAc = target: Gal6S(b1-4)GlcNAc
# Outline: as §1
# Gal6S(b1-4)GlcNAc6S = target: Gal6S(b1-4)GlcNAc6S
# Outline: as §1
# GalNAc(a1-3)Gal = target: GalNAc(a1-3)Gal
# Outline: as §1
# GalNAc(a1-3)GalNAc = target: GalNAc(a1-3)GalNAc
# Outline: as §1
# [4] = target: GalNAc(a1-3)GalNAc(b1-3)Gal(a1-4)Gal(b1-4)Glc
# Outline: as §1
# [5] = target: GalNAc(a1-3)GalNAc(b1-3)Gal(a1-4)Gal(b1-4)GlcNAc
# Outline: as §1
# GalNAc(b1-3)Gal = target: GalNAc(b1-3)Gal
# Outline: as §1
# [6] = target: GalNAc(b1-3)Gal(a1-4)Gal(b1-4)GlcNAc
# Outline: as §1
# [7] = target: GalNAc(b1-3)Gal(a1-4)Gal(b1-4)GlcNAc(b1-3)Gal(b1-4)Glc
# Outline: as §1
# [8] = target: GalNAc(b1-3)Gal(a1-6)Gal(b1-4)Glc
# Outline: as §1
# GalNAc(b1-3)GalNAc = target: GalNAc(b1-3)GalNAc
# Outline: as §1
# GalNAc(b1-3)GlcNAc = target: GalNAc(b1-3)GlcNAc
# Outline: as §1
# GalNAc(b1-4)Gal(b1-4)Glc = target: GalNAc(b1-4)Gal(b1-4)Glc
# Outline: as §1
# GalNAc(b1-4)GlcNAc = target: GalNAc(b1-4)GlcNAc
# Outline: as §1
# [9] = target: GalNAc(b1-4)GlcNAc(b1-2)Man
# Outline: as §1
# [10] = target: GalNAc(b1-4)GlcNAc(b1-2)Man(a1-3)[GalNAc(b1-4)GlcNAc(b1-2)Man(a1-6)]Man(b1-4)GlcNAc(b1-4)GlcNAc
# Outline: as §1
# [11] = target: GalNAc(b1-4)GlcNAc(b1-3)GalNAc(b1-4)GlcNAc
# Outline: as §1
# GalNAc(b1-4)GlcNAc6S = target: GalNAc(b1-4)GlcNAc6S
# Outline: as §1
# GalNAc(b1-6)GalNAc = target: GalNAc(b1-6)GalNAc
# Outline: as §1
# GalNAc3S(b1-4)GlcNAc = target: GalNAc3S(b1-4)GlcNAc
# Outline: as §1
# GalNAc3S(b1-4)GlcNAc3S = target: GalNAc3S(b1-4)GlcNAc3S
# Outline: as §1
binder,measurement,setting,value
B1,glycan array binding signal (z-score),Gal3S(b1-4)Glc,0.262
same,glycan array binding signal (z-score),Gal3S(b1-4)Glc6S,-0.407
same,glycan array binding signal (z-score),Gal3S(b1-4)GlcNAc,-0.442
same,glycan array binding signal (z-score),[1],2.22
same,glycan array binding signal (z-score),[2],-0.452
same,glycan array binding signal (z-score),[3],-0.655
same,glycan array binding signal (z-score),Gal3S4S(b1-4)GlcNAc,-0.454
same,glycan array binding signal (z-score),Gal3S6S(b1-4)GlcNAc,-0.474
same,glycan array binding signal (z-score),Gal3S6S(b1-4)GlcNAc6S,0.103
same,glycan array binding signal (z-score),Gal4S(b1-4)GlcNAc,-0.273
same,glycan array binding signal (z-score),Gal4S6S(b1-4)GlcNAc,-0.52
same,glycan array binding signal (z-score),Gal6P(b1-4)GlcNAc,-0.613
same,glycan array binding signal (z-score),Gal6S(b1-3)GlcNAc,1.3
same,glycan array binding signal (z-score),Gal6S(b1-3)GlcNAc6S,-0.674
same,glycan array binding signal (z-score),Gal6S(b1-4)Glc,0.737
same,glycan array binding signal (z-score),Gal6S(b1-4)Glc6S,-0.275
same,glycan array binding signal (z-score),Gal6S(b1-4)GlcNAc,0.284
same,glycan array binding signal (z-score),Gal6S(b1-4)GlcNAc6S,0.089
same,glycan array binding signal (z-score),GalNAc(a1-3)Gal,-0.045
same,glycan array binding signal (z-score),GalNAc(a1-3)GalNAc,-0.209
same,glycan array binding signal (z-score),[4],-0.779
same,glycan array binding signal (z-score),[5],0.111
same,glycan array binding signal (z-score),GalNAc(b1-3)Gal,0.939
same,glycan array binding signal (z-score),[6],0.266
same,glycan array binding signal (z-score),[7],-0.567
same,glycan array binding signal (z-score),[8],-0.594
same,glycan array binding signal (z-score),GalNAc(b1-3)GalNAc,-0.744
same,glycan array binding signal (z-score),GalNAc(b1-3)GlcNAc,0.616
same,glycan array binding signal (z-score),GalNAc(b1-4)Gal(b1-4)Glc,2.04
same,glycan array binding signal (z-score),GalNAc(b1-4)GlcNAc,0.77
same,glycan array binding signal (z-score),[9],1.89
same,glycan array binding signal (z-score),[10],0.171
same,glycan array binding signal (z-score),[11],-0.295
same,glycan array binding signal (z-score),GalNAc(b1-4)GlcNAc6S,-0.234
same,glycan array binding signal (z-score),GalNAc(b1-6)GalNAc,-0.486
same,glycan array binding signal (z-score),GalNAc3S(b1-4)GlcNAc,-0.649
same,glycan array binding signal (z-score),GalNAc3S(b1-4)GlcNAc3S,-0.726

# For reference, some entries already given:
binder,measurement,setting,value
B1,glycan array binding signal (z-score),Gal6P(b1-4)GlcNAc,-0.613
same,glycan array binding signal (z-score),Gal6S(b1-3)GlcNAc,1.3
same,glycan array binding signal (z-score),Gal6S(b1-3)GlcNAc6S,-0.674
same,glycan array binding signal (z-score),Gal6S(b1-4)Glc,0.737
same,glycan array binding signal (z-score),Gal6S(b1-4)Glc6S,-0.275
same,glycan array binding signal (z-score),Gal6S(b1-4)GlcNAc,0.284
same,glycan array binding signal (z-score),Gal6S(b1-4)GlcNAc6S,0.089
